{"source": "paper PMC4906169", "binders": {"B1": {"name": "Got1p Arabidopsis homologue, BiFC fusion (protein, UniProt Q6NMM1 1-140)", "chain": "MASLEMNDLKKIGLGLTGFGVFFTFLGVIFVFDKGLIAMGNILFLAGVTLTIGINPAIQFFTKRQNFKGTISFGLGFLLVVFGWPIFGLLLESYGFLVLFSGFWPTLAVFLQRIPLLGWLLQQPYIRSLLDRYRGRRVPV"}}, "assay_in_all_cases": "split reporter; BiFC with Yn/Yc halves of VENUS fused to the N-termini; transient co-expression in N. benthamiana epidermal leaf cells, imaged by confocal microscopy 62 h after infiltration", "key": {"[1]": {"molecular_target": "T1, STELLO2 (STL2), BiFC fusion (Yn-STL2 / Yc-STL2) (Arabidopsis thaliana) (UniProt Q9SCN0)", "T1 sequence": "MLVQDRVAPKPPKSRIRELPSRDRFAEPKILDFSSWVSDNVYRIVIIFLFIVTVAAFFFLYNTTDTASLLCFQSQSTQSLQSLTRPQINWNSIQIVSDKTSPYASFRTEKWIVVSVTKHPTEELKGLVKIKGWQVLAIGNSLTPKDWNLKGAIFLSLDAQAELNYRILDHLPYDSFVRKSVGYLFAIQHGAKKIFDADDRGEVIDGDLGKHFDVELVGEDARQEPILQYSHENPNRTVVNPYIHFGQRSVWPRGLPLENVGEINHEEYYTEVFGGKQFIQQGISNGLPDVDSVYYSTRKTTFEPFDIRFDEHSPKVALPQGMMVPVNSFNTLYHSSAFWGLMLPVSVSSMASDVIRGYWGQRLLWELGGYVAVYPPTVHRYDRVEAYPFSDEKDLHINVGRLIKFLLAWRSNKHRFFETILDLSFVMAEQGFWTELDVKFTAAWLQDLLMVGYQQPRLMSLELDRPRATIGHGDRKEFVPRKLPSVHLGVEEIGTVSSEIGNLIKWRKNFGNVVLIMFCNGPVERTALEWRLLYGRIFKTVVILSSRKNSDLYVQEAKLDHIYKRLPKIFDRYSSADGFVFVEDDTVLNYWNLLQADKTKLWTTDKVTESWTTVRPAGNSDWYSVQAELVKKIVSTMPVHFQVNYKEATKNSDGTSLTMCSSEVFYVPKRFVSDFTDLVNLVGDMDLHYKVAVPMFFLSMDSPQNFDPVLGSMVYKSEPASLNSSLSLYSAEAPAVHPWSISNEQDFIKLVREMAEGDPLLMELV"}, "[2]": {"molecular_target": "Got1p Arabidopsis homologue, BiFC fusion (Arabidopsis thaliana) (UniProt Q6NMM1)"}, "[3]": {"molecular_target": "T2, Cellulose synthase CesA6, BiFC fusion (Arabidopsis thaliana) (UniProt Q94JQ6)", "T2 sequence": "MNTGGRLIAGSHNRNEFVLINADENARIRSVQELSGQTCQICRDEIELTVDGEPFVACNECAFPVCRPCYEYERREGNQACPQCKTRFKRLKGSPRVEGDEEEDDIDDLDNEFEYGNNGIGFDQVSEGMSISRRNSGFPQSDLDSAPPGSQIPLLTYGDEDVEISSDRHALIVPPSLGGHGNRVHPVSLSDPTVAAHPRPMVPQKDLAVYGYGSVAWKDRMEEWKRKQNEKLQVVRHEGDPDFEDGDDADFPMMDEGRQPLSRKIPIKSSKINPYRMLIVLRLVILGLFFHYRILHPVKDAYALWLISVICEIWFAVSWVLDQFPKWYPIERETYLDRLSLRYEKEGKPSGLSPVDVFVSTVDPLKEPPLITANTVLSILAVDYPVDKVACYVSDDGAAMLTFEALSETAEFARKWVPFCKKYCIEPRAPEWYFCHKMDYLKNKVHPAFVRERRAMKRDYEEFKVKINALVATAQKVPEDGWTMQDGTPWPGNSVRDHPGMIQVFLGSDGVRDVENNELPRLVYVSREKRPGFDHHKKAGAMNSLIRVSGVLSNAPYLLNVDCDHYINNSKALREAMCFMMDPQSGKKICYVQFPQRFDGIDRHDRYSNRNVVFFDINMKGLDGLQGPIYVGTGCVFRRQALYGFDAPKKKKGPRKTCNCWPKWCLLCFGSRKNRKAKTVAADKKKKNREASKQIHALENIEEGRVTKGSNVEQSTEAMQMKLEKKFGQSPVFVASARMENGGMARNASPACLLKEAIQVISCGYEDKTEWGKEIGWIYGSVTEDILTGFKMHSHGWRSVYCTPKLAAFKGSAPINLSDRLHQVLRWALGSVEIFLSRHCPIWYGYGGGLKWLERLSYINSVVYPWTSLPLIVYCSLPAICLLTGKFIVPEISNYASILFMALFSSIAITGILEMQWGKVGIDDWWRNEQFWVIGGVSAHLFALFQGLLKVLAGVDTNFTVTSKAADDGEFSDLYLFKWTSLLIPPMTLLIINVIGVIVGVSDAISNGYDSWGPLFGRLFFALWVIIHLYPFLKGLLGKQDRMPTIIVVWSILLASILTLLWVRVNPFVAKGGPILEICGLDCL"}, "[4]": {"molecular_target": "T3, STELLO1 (STL1), BiFC fusion (Yn-STL1 / Yc-STL1) (Arabidopsis thaliana) (UniProt O22943)", "T3 sequence": "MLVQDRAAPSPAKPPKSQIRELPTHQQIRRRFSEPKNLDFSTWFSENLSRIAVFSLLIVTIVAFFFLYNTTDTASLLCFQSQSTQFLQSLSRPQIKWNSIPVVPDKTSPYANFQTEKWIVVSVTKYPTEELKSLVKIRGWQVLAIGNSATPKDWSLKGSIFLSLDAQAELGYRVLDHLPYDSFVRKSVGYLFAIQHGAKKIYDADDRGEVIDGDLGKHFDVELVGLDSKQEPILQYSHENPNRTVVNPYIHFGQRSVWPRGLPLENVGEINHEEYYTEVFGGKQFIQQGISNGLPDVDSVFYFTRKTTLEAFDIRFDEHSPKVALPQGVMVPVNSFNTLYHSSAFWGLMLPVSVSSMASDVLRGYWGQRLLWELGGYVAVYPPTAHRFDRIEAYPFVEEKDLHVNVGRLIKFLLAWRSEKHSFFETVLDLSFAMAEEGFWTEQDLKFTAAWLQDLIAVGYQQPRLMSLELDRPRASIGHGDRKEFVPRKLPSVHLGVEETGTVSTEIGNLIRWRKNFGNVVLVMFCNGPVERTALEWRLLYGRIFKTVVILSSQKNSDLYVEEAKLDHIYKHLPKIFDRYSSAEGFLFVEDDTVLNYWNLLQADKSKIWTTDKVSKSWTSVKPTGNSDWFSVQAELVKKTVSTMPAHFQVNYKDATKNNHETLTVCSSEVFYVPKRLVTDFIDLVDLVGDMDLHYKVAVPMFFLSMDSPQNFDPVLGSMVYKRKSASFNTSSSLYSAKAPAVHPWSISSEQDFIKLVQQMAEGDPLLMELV"}}, "note": "No constants are given. Whether binding was seen depends on the method and setting. In cells and extracts the contact can be indirect. Some binding calls cover weakened binding; strength is not graded here. Tags and fused reporters may be left off the sequences shown."}
{"binder": "B1", "values": [{"measurement": "binding", "setting": "[1]", "result": "no binding"}, {"measurement": "binding", "setting": "[2]", "result": "binds"}, {"measurement": "binding", "setting": "[3]", "result": "no binding"}, {"measurement": "binding", "setting": "[4]", "result": "no binding"}]}
